At least one peptide structure holds a part that was inferred or is arguable (an end, a ring closure or a residue). Some entries repeat one wording, which the source may state once for all of them. Positions of bridges follow the written chain, without caps; N, C: chain ends. Non-standard residues stand in square brackets, D forms with d. Residues, ends and D or L forms follow the SMILES beside them. pS = N[C@@H](COP(=O)(O)O)C(=O)O
What was measured:
[1] = test system: ligated rat duodenal loops; assay: Fluid secretion in rat intestinal loops; assay type: in vivo; conditions: for Rate of HCO3− accumulation / Rate of fluid accumulation / pH: ligated rat duodenal loops, 2.5 μg of peptide per loop
Description: The effect of GC-C agonist peptides on secretion were studied by injecting GC-C agonist peptides described herein directly into an isolated loop in wild-type rats.
Loops were isolated by surgically ligating three loops in the small intestine of the rat. The methodology for ligated loop formation was similar to that described in (London et al., 1997, Am J Physiol, p. G93-105). The loops were roughly centered and at lengths of 1-3 cm. The loops were injected with 200 μl of either peptide/GC-C agonist (0.1-5 μg) or vehicle (20 mM Tris, pH 7.5 or Krebs Ringer, 10 mM Glucose, HEPES buffer (KRGH)). Following a recovery time of up to 90 minutes the loops were excised. Weights were recorded for each loop before and after removal of the fluid contained therein. The length of each loop was also recorded. A weight to length ratio (W/L) for each loop was calculated to determine the effects of the GC-C agonist peptide described herein on secretion. Loop fluid volume was also determined.
Data showing increases in fluid secretion, pH increase and bicarbonate secretion in ligated duodenal loops in rats are shown in FIG. 2 and Table 8. […] Table 8 provides the results in ligated rat duodenal loops using 2.5 μg of peptide per loop.

[2] = test system: upper GI transit in mice; assay: Gastrointestinal transit in mice (charcoal meal); assay type: in vivo; conditions: female CD-1 mice; oral gavage; distance travelled by charcoal front, % of small intestine
Description: The purpose of the assay was to test the effect of the guanylate cyclase C agonist peptides on in vivo gastrointestinal transit in mice.
For the assay, female CD-1 mice (n=10 per group) weighing 25-30 g were fasted overnight and given access to water ad libitum. Activated charcoal (20 g; 100 mesh; Sigma cat #242276) was suspended in 200 mL gum arabic (100 mg/mL), and stirred for at least one hour. Test peptides were prepared in a 20 mM Tris pH 6.9 vehicle.
Test peptide and vehicle were administered in 200 μL doses by oral gavage. Seven minutes after dosing the test peptides, 200 μL of the charcoal/gum arabic suspension was dosed by oral gavage. After 15 minutes, mice were sacrificed by CO2 overdose. The gastrointestinal tract was removed from the esophagus to the caecum. The total length of the small intestine was measured from the pyloric junction to the ileocaecal junction. The distance travelled by the charcoal was measured from the pyloric junction to the charcoal front. The Distance Travelled (%) was determined as (distance travelled by charcoal/total length of the small intestine)×100. Data were entered into the GraphPad Prism software program and analyzed by ANOVA using a Bonferroni multiple comparison test post-hoc. Plots of data and ED50 were also determined using the GraphPad Prism software package.
The dose-dependent effects of acute doses of Peptide 4, Peptide 1, Peptide 2, the dephosphorylated form of Peptide 1 and the dephosphorylated form of Peptide 2 on GI transit were determined in female CD mice. The distance traveled by the charcoal front after seven minutes, expressed as a percent of total length of small intestine was used to calculate ED50 values (Table 7).

[3] = In vitro metabolism in mouse jejunum loop fluid; assay type: in vitro ADME; conditions: control reaction (1 M Tris-HCl) at 37° C.; 120 minute incubation
Description: The purpose of this study was to determine the stability of phosphorylated peptides in mouse jejunal loop fluid. […] The isotopically labeled peptide 2 was synthesized with ^13C, ^15N-labeled alanine and leucine (i.e., with a sequence CCpS[^13C6,^15N]LCCNP[^13C6,^15N]ACTGC (SEQ ID NO:16)).
Each peptide was synthesized by American Peptide Company, Inc., and was stored desiccated at −20° C. A 1 mg/mL solution for each of the non-labeled peptides was prepared in 1 M tris(hydroxymethyl)aminomethane hydrochloride (Tris-HCl), pH 8 just prior to conducting the mouse intestinal loop fluid assay. A 500 ng/mL solution of ^13C, ^15N-labeled peptide 2 was prepared in 0.1% formic acid in water and was utilized to dilute the jejunum samples for post-assay LC-MS/MS analysis.
To collect the fluid, mice were fasted overnight with full access to water. They were then anesthetized with isofluorane for surgery and subjected to laparotomy in which the small intestine was exteriorized. Jejunum loops of 3 to 4 cm in length were made with sutures starting at 7 cm from the pyloric sphincter of the stomach. Once the loops were formed, they were injected with 200 μL of phosphate buffered saline (PBS) buffer (10 mM, pH 7.4). The abdominal wall and skin of the animals were then sutured, and the animals were allowed to recover for 30 minutes. Following recovery, the animals were sacrificed, the loops were then excised and the fluid inside was recovered and stored at −80° C. until use.
For each peptide, 25 μL of the 1 mg/mL peptide stock solution was added to 25 μL of 1 M Tris-HCl and 25 μL of 10× calf intestinal phosphatase (CIP) buffer containing 500 mM Tris-HCl, 1 M sodium chloride (NaCl), 0.1 mM magnesium chloride (MgCl2), pH 8. The reactions were initiated by adding 175 μL of the mouse jejunum loop fluid or 175 μL of the 1 M Tris-HCl pH8 buffer for the control reactions. The final concentration of each peptide was 100 μg/mL. […]
All samples were analyzed using an Applied Biosystems/MDS SCIEX API 4000 triple quadrupole mass spectrometer equipped with a high-performance liquid chromatography (HPLC) system. […]

[4] = test system: STZ-induced diabetic rats; assay: Liquid gastric emptying in STZ-induced diabetic rats; assay type: in vivo; conditions: 15 min

CC(C)C[C@@H]1NC(=O)[C@H](CO)NC(=O)[C@@H]2CSSC[C@@H]3NC(=O)[C@H](C)NC(=O)[C@@H]4CCCN4C(=O)[C@H](CC(N)=O)NC(=O)[C@H](CSSC[C@H](N)C(=O)N2)NC(=O)[C@H](CSSC[C@@H](C(=O)N[C@@H](Cc2ccc(O)cc2)C(=O)O)NC(=O)CNC(=O)[C@H]([C@@H](C)O)NC3=O)NC1=O [Dephospho-Peptide 1, CCSLCCNPACTGCY] (H-CCSLCCNPACTGCY-OH; disulfide 1-6, 2-10, 5-13 (inferred); N-terminus and C-terminus assumed)
Rate of HCO3− accumulation [1]: 0.00008 Meq/min/cm | Rate of fluid accumulation [1]: 2.0 µL/min/cm | pH [1]: 7.7 | ED50, acceleration of upper GI transit in mice [2]: 12.7 µg/kg

CC(C)C[C@@H]1NC(=O)[C@H](CO)NC(=O)[C@@H]2CSSC[C@@H]3NC(=O)[C@H](C)NC(=O)[C@@H]4CCCN4C(=O)[C@H](CC(N)=O)NC(=O)[C@H](CSSC[C@H](N)C(=O)N2)NC(=O)[C@H](CSSC[C@@H](C(=O)O)NC(=O)CNC(=O)[C@H]([C@@H](C)O)NC3=O)NC1=O [Dephospho-Peptide 2, CCSLCCNPACTGC] (H-CCSLCCNPACTGC-OH; disulfide 1-6, 2-10, 5-13 (inferred); N-terminus and C-terminus assumed)
Rate of fluid accumulation [1]: 2.3 µL/min/cm | ED50, acceleration of upper GI transit in mice [2]: 6.03 µg/kg | Metabolism in control reaction [3]: not metabolized

CC(C)C[C@@H]1NC(=O)[C@H](COP(=O)(O)O)NC(=O)[C@@H]2CSSC[C@@H]3NC(=O)[C@H](C)NC(=O)[C@@H]4CCCN4C(=O)[C@H](CC(N)=O)NC(=O)[C@H](CSSC[C@H](N)C(=O)N2)NC(=O)[C@H](CSSC[C@@H](C(=O)N[C@@H](Cc2ccc(O)cc2)C(=O)O)NC(=O)CNC(=O)[C@H]([C@@H](C)O)NC3=O)NC1=O [Peptide 1, CCpSLCCNPACTGCY] (H-CC[pS]LCCNPACTGCY-OH; disulfide 1-6, 2-10, 5-13 (inferred); N-terminus and C-terminus assumed)
Rate of HCO3− accumulation [1]: 0.00007 Meq/min/cm | Rate of fluid accumulation [1]: 1.8 µL/min/cm | pH [1]: 7.7 | ED50, acceleration of upper GI transit in mice [2]: 5.61 µg/kg

CC(C)C[C@@H]1NC(=O)[C@H](COP(=O)(O)O)NC(=O)[C@@H]2CSSC[C@@H]3NC(=O)[C@H](C)NC(=O)[C@@H]4CCCN4C(=O)[C@H](CC(N)=O)NC(=O)[C@H](CSSC[C@H](N)C(=O)N2)NC(=O)[C@H](CSSC[C@@H](C(=O)O)NC(=O)CNC(=O)[C@H]([C@@H](C)O)NC3=O)NC1=O [Peptide 2, CCpSLCCNPACTGC] (H-CC[pS]LCCNPACTGC-OH; disulfide 1-6, 2-10, 5-13 (inferred); N-terminus and C-terminus assumed)
Induction of fluid accumulation in ligated rat duodenal loops (potency, FIG. 2) ([1]; FIG. 2): potency similar to that of Peptide 4 | Rate of HCO3− accumulation [1]: 0.00008 Meq/min/cm | Rate of fluid accumulation [1]: 2.3 µL/min/cm | pH [1]: 8.1 | ED50, acceleration of upper GI transit in mice [2]: 2.47 µg/kg | Effect on liquid gastric emptying (LGE) ([4]; 0.1 mg/kg oral gavage): did not statistically significantly restore LGE to those of normal controls | Effect on liquid gastric emptying (LGE) ([4]; 0.3 mg/kg oral gavage): restored LGE in STZ-induced diabetic animals to those of normal controls | Effect on liquid gastric emptying (LGE) ([4]; 1.0 mg/kg oral gavage): restored LGE in STZ-induced diabetic animals to those of normal controls | Metabolism in control reaction [3]: not metabolized

CC(C)C[C@@H]1NC(=O)[C@H](CCC(=O)O)NC(=O)[C@@H]2CSSC[C@@H]3NC(=O)[C@H](C)NC(=O)[C@@H]4CCCN4C(=O)[C@H](CC(N)=O)NC(=O)[C@H](CSSC[C@H](N)C(=O)N2)NC(=O)[C@H](CSSC[C@@H](C(=O)N[C@@H](Cc2ccc(O)cc2)C(=O)O)NC(=O)CNC(=O)[C@H]([C@@H](C)O)NC3=O)NC1=O [Peptide 3, CCELCCNPACTGCY] (H-CCELCCNPACTGCY-OH; disulfide 1-6, 2-10, 5-13 (inferred); N-terminus and C-terminus assumed)
Effect on liquid gastric emptying (LGE) ([4]; 0.1 mg/kg oral gavage): effective | Metabolism in control reaction [3]: not metabolized

Reference: patent publication US8946158B2, “Treatments of gastrointestinal disorders” (Ironwood Pharmaceuticals, Inc., priority 2009, dated 2015)
